Assay results taken from PubChem BioAssay (NCATS).
This is one part of the list. The main result of the screen is listed elsewhere. These columns were measured beside it and carry no call. Compounds called inactive in the main read-out are mostly missing here. The note in brackets gives the kind of curve behind each potency; many fits are weak.

assay: NCATS anti-infectives library activity on the primary C. elegans qHTS viability assay (AID 1745855); conditions: C. elegans worm area imaging, day 7, measured here: worm number
Excerpt: Assay Development and Screening Technology Laboratory (ADST)
National Center for Advancing Translational Sciences (NCATS), Rockville, MD
National Institute of Health (NIH), Bethesda, Maryland
Caenorhabditis elegans has helped elucidate the evolutionarily conserved genetics underlying pathways and cellular processes implicated in human disease and may be ideally positioned to reveal novel pharmacological properties of exiting drugs. The organism's short life cycle and microscopic size is applicable to the technical requirements of high-throughput screening. Here a quantitative high-throughput screening (qHTS)-based forward chemical biology platform has been developed using C. elegans. 384-well microtiter plate laser scanning cytometry was used in the rapid detection and quantification of the fluorescent protein-encoded phenotype to score worm viability. In a proof-of-concept study, the pharmacological qHTS profile obtained from a library of 643 anti-infective compounds.
1. Inglese, J., Auld, D. S., Jadhav, A., Johnson, R. L., Simeonov, A., Yasgar, A., Zheng, W., and Austin, C. P. (2006) Quantitative high-throughput screening: A titration-based approach that efficiently identifies biological activities in large chemical libraries, P Natl Acad Sci USA 103, 11473-11478.
2. Auld, D. S., Johnson, R. L., Zhang, Y. Q., Veith, H., Jadhav, A., Yasgar, A., Simeonov, A., Zheng, W., Martinez, E. D., Westwick, J. K., Austin, C. P., and Inglese, J. (2006) Fluorescent protein-based cellular assays analyzed by laser-scanning microplate cytometry in 1536-well plate format, Method Enzymol 414, 566-589.
3. Zuck, P., Lao, Z., Skwish, S., Glickman, J. F., Yang, K., Burbaum, J., and Inglese, J. (1999) Ligand-receptor binding measured by laser-scanning imaging, Proc Natl Acad Sci U S A 96, 11122-11127.
PROTOCOL TABLE (as described by Inglese J, Shamu CE and Guy RK. 2007)
SEQUENCE No. (e.g., 1, 2, 3, etc.); […] (e.g., C. elegans, Compounds, Incubation, Read, etc.); VALUE and DESCRIPTION.
1. C. elegans. Mixed population of OP50 E. coli fed PE254-GFP-FLuc C. elegans collected, bleached, and axenized eggs hatched overnight at 21 °C with 65 RPM shaking in M9 buffer.
2. Compounds. Library compounds, levamisole toxicity control and DMSO vehicle control added at 250 nL per well to 21 assay ready 384-well Greiner uClear plates and two DMSO control plates, transferred by Echo acoustic dispenser.
3. Media. Add 30 uL per well strained TOP10 E. coli capsules diluted to OD600 = 0.85 in S medium to 23 assay ready 384-well Greiner uClear plates.
4. C. elegans. Add 10 synchronized L1 worms per 30 uL per well to 23 assay ready 384-well Greiner uClear plates with bacterial capsules and compounds.
(§1) 5. Detector. Worm GFP fluorescence measured on an Acumen eX3 laser cytometer within 2 hr of plating with settings as follows: Scan 1: Ex laser 488 nm; Detection Channel: Green, Voltage = 400, Sensitivity = 2, Trigger; Default reader settings; Data gated on perimeter, area, and peak intensity of detected objects.
6. Incubation. C. elegans grown in 384-well plates with bacterial capsules and compounds at 21 °C with 65 RPM shaking for 7 days.
as §1, with “7.” for “5.”, “C. elegans” for “Worm”, “at day 0, 3 and day 7” for “within 2 hr of plating”, “the following settings:” for “settings as follows:”
NOTES (numbers refer to Sequence numbers above; values are from representative experiments)
1. Mixed population of PE254-GFP-FLuc C. elegans (P#18) grown for three days on twelve 10 cm NGM plates with OP50 E. coli. Worms collected from freshly starved plates with 4 ml 1X S basal buffer per plate into 15 ml tubes. Each plate rinsed with an additional 2 ml buffer and rinse added to 15 ml tubes. Worms allowed to settle at ambient temp for 10 min, buffer removed as waste and worms washed 3x with 5 ml buffer per tube. […]

| SMILES | AC50 |
| --- | --- |
| Cc1oc(=O)oc1CN1CCN(c2cc3c(cc2F)c(=O)c(C(=O)O)c2n3C(C)S2)CC1 (stereo not given) | 20.5 µM [falling, partial curve, poor fit] |
| O=C(/C=C/c1ccccc1)NC(NC(=S)Nc1cccc2cccnc12)C(Cl)(Cl)Cl (stereo not given) | 4.59 µM [falling, full curve, poor fit] |
| Cc1cc(C)c(Nc2ccnc(Nc3ccc(C#N)cc3)n2)c(C)c1 | 7.27 µM [falling, partial curve] |
| CCOC(=O)c1c(CSc2ccccc2)n(C)c2cc(Br)c(O)c(CN(C)C)c12 | 25.8 µM [falling, single point] |
| COc1cc2nc(N3CCN(C(=O)C4COc5ccccc5O4)CC3)nc(N)c2cc1OC (stereo not given) | 25.8 µM [falling, partial curve, poor fit] |
| N[C@H]1CONC1=O | 0.501 µM [falling, full curve, poor fit] |
| COc1c2c(cc3c1-c1c(cc4c(c1OC)OCO4)CC(C)C(C)C3)OCO2 (stereo not given) | 22.6 µM [falling, single point] |
| CN(C)CCCN1c2ccccc2Sc2ccc(Cl)cc21 | 25.8 µM [falling, single point] |
| CCCN1CCC=C(c2cc(-c3ccc(C)cc3)no2)C1 | 5.15 µM [falling, partial curve] |
| CCC[C@H](NC(=O)/C(C#N)=C/c1cccc(Br)n1)c1ccccc1 | 2.58 µM [falling, partial curve, poor fit] |
| CCCCCCCCCCCCCCCC[n+]1ccccc1 | 23 µM [falling, single point] |
| O=c1cc(-c2ccc(O)c(O)c2)oc2cc(O[C@@H]3O[C@H](CO)[C@@H](O)[C@H](O)[C@H]3O)cc(O)c12 | 29 µM [rising, single point] |

same assay, conditions: C. elegans worm area imaging, day 7; measured here: worm area, day 3

| SMILES | AC50 |
| --- | --- |
| Cc1cc(N2CCN([C@@H]3CN[C@H](C(=O)N4CCSC4)C3)CC2)n(-c2ccccc2)n1 | 0.0816 µM [falling, partial curve, poor fit] |
| CC(C(=O)O)c1ccc(C(=O)c2cccs2)cc1 (stereo not given) | 0.708 µM [rising, partial curve, poor fit] |
| O=C1CCc2c(ccc3ccccc23)O1 | 23 µM [falling, partial curve, poor fit] |
| CC(C)CCNC(=O)[C@H](CC(C)C)NC(=O)[C@H]1O[C@@H]1C(=O)O | 9.16 µM [falling, partial curve, poor fit] |
| CCOC(=O)c1c(CSc2ccccc2)n(C)c2cc(Br)c(O)c(CN(C)C)c12 | 20.5 µM [falling, single point] |
| COc1cc2nc(N3CCN(C(=O)C4COc5ccccc5O4)CC3)nc(N)c2cc1OC (stereo not given) | 5.78 µM [falling, partial curve, poor fit] |
| COc1c2c(cc3c1-c1c(cc4c(c1OC)OCO4)CC(C)C(C)C3)OCO2 (stereo not given) | 4.5 µM [falling, partial curve, poor fit] |
| CN(C)CCCN1c2ccccc2Sc2ccc(Cl)cc21 | 25.8 µM [falling, single point] |
| CCCN1CCC=C(c2cc(-c3ccc(C)cc3)no2)C1 | 8.16 µM [falling, partial curve, poor fit] |
| CN1CC[C@@H](c2c(O)cc(O)c3c(=O)cc(-c4ccccc4Cl)oc23)[C@@H](O)C1 | 1.29 µM [falling, full curve, poor fit] |
| CCN(CC)Cc1ccc2cc(COC(=O)Nc3ccc(C(=O)NO)cc3)ccc2c1 | 0.578 µM [falling, full curve, poor fit] |
| C=C1CCC2C(C)(CO)C(O)CCC2(C)C1C/C=C1\C=COC1=O (stereo not given) | 29 µM [rising, single point] |

same assay, conditions: C. elegans worm area imaging, day 7; measured here: worm number, day 3

| SMILES | AC50 |
| --- | --- |
| Cc1oc(=O)oc1CN1CCN(c2cc3c(cc2F)c(=O)c(C(=O)O)c2n3C(C)S2)CC1 (stereo not given) | 7.27 µM [rising, partial curve, poor fit] |
| O=C(/C=C/c1ccccc1)NC(NC(=S)Nc1cccc2cccnc12)C(Cl)(Cl)Cl (stereo not given) | 29 µM [falling, single point] |
| N#C/C(=C\c1ccc(O)c(O)c1)C(=O)NCCCc1ccccc1 | 25.8 µM [falling, single point] |
| CC1(C)CC[C@]2(C(=O)O)CC[C@]3(C)C(=CC[C@@H]4[C@@]5(C)C[C@@H](O)[C@H](O)C(C)(C)[C@@H]5CC[C@]43C)[C@@H]2C1 | 6.48 µM [falling, partial curve, poor fit] |
| Cc1cc(C)c(Nc2ccnc(Nc3ccc(C#N)cc3)n2)c(C)c1 | 5.15 µM [falling, partial curve, poor fit] |
| O=C1CCc2c(ccc3ccccc23)O1 | 9.16 µM [falling, partial curve, poor fit] |
| CCOC(=O)c1c(CSc2ccccc2)n(C)c2cc(Br)c(O)c(CN(C)C)c12 | 45.9 µM [falling, single point] |
| CN1CCN(CCOc2cc(OC3CCOCC3)c3c(Nc4c(Cl)ccc5c4OCO5)ncnc3c2)CC1 | 0.023 µM [falling, full curve, poor fit] |
| O=C(Nc1ccccc1)OCC(CN1CCCCC1)OC(=O)Nc1ccccc1 (stereo not given) | 2.3 µM [falling, partial curve, poor fit] |
| OCCc1ccccc1 | 0.816 µM [falling, full curve, poor fit] |
| COc1cc2nc(N3CCN(C(=O)C4COc5ccccc5O4)CC3)nc(N)c2cc1OC (stereo not given) | 25.8 µM [falling, single point] |
| CS(=O)(=O)c1ccc(-c2nnc(/C=C/c3nnc(-c4ccc(C#N)cc4)o3)n2-c2ccccc2Cl)nc1 | 1.15 µM [rising, partial curve, poor fit] |
| CCCN1CCC=C(c2cc(-c3ccc(C)cc3)no2)C1 | 4.09 µM [falling, partial curve, poor fit] |
| CCC[C@H](NC(=O)/C(C#N)=C/c1cccc(Br)n1)c1ccccc1 | 14.5 µM [falling, single point] |
| CCN(CC)Cc1ccc2cc(COC(=O)Nc3ccc(C(=O)NO)cc3)ccc2c1 | 16.3 µM [falling, partial curve] |
| O=c1cc(-c2ccc(O)c(O)c2)oc2cc(O[C@@H]3O[C@H](CO)[C@@H](O)[C@H](O)[C@H]3O)cc(O)c12 | 40.9 µM [rising, single point] |
